PubChem BioAssay AID1259254 | NCATS – 2017
The deposit covers about 59,000 reagents; this is a part drawn at random. Of all reagents, about 1,550 (2.6%) got an active call. 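G2 share is only a proxy for re-replication; each gene was hit by three separate siRNAs, and active genes were retested.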 The raw values are shown without normalisation. The numbers tell different reagents against one gene apart. No sequences are given here. Not stated in the record: the amount of reagent.

Aim: 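Genome-wide screen for genes that prevent DNA re-replication in cancer cells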 (primary screen)
Cell system: human HCT116 colorectal cancer cells
Knock-down reagent: single siRNA against human genes
Duration: 3 days
Detection: 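Nuclei stained with Hoechst and imaged; cell-cycle phase assigned by DNA content; G2 share scaled per plate, non-targeting siRNA 0%, GMNN siRNA 100%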
Scale: G2 robust z-score and G2 cells, % of GMNN control: higher = more G2 cells, more excess DNA replication; raw share of cells in G2: higher = larger share of cells with G2 DNA content
Call rule: 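An siRNA counts as active if its G2 robust z-score lies at least 5 MADs above the screen median; here such calls match roughly 38% of GMNN control or more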

Target gene,reagent no.,G2 robust z-score,"G2 cells, % of GMNN control",raw share of cells in G2 (%),outcome
CABLES2 (GeneID 81928),1,-0.757,-2.36,1.69,inactive
CABLES2 (GeneID 81928),2,3.81,29.7,14,inactive
CABLES2 (GeneID 81928),3,0.109,3.73,4.56,inactive
ZNF860 (GeneID 344787),1,-0.221,1.42,3.66,inactive
ZNF860 (GeneID 344787),2,-0.286,0.953,4.31,inactive
ZNF860 (GeneID 344787),3,-0.121,2.12,4.19,inactive
ZNF860 (GeneID 344787),4,1.85,16,10.6,inactive
ZNF860 (GeneID 344787),5,0.0763,3.5,5.27,inactive
ZNF860 (GeneID 344787),6,-0.366,0.394,3.44,inactive
ATOH8 (GeneID 84913),1,2.63,21.5,9.74,inactive
ATOH8 (GeneID 84913),2,1.51,13.6,7.23,inactive
ATOH8 (GeneID 84913),3,1.75,15.3,10.6,inactive
OCA2 (GeneID 4948),1,0.168,4.15,6.77,inactive
OCA2 (GeneID 4948),2,-0.294,0.9,5.12,inactive
OCA2 (GeneID 4948),3,-0.319,0.725,3.45,inactive
PPP2R1B (GeneID 5519),1,-0.496,-0.525,4.62,inactive
PPP2R1B (GeneID 5519),2,0.602,7.2,6.47,inactive
PPP2R1B (GeneID 5519),3,-0.613,-1.35,3.09,inactive

In a second layout: 3 of the entries above.
{"Target gene":"ZNF860 (GeneID 344787)","reagent no.":4,"G2 robust z-score":1.85,"G2 cells, % of GMNN control":16,"raw share of cells in G2 (%)":10.6,"outcome":"inactive"}
{"Target gene":"ZNF860 (GeneID 344787)","reagent no.":5,"G2 robust z-score":0.0763,"G2 cells, % of GMNN control":3.5,"raw share of cells in G2 (%)":5.27,"outcome":"inactive"}
{"Target gene":"ZNF860 (GeneID 344787)","reagent no.":6,"G2 robust z-score":-0.366,"G2 cells, % of GMNN control":0.394,"raw share of cells in G2 (%)":3.44,"outcome":"inactive"}

Next entries follow:
Target gene,reagent no.,G2 robust z-score,"G2 cells, % of GMNN control",raw share of cells in G2 (%),outcome
C5orf24 (GeneID 134553),1,-0.671,-1.76,3.51,inactive
C5orf24 (GeneID 134553),2,0.162,4.11,4.41,inactive
C5orf24 (GeneID 134553),3,-0.111,2.19,3.37,inactive
TGM1 (GeneID 7051),1,0.908,9.36,7.05,inactive
TGM1 (GeneID 7051),2,-0.251,1.2,6.09,inactive
TGM1 (GeneID 7051),3,1.95,16.7,10.3,inactive
DAP (GeneID 1611),1,-0.736,-2.21,4.26,inactive
DAP (GeneID 1611),2,-0.184,1.68,4.7,inactive
DAP (GeneID 1611),3,-0.509,-0.612,3.28,inactive
SLAIN2 (GeneID 57606),1,2.05,17.4,11.2,inactive
SLAIN2 (GeneID 57606),2,-0.0821,2.39,5.6,inactive
SLAIN2 (GeneID 57606),3,0.873,9.11,5.92,inactive
